The target of assay [1] is T1, GST-tagged SIPA1 NLR hinge (GST-NLR), SIPA1(140-179 aa) (human) (UniProt Q96FS4).
T1 sequence: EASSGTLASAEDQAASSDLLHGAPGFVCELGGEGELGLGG
Description: pull-down; purified GST or GST-NLR incubated with whole-cell lysates; Western blot with anti-importin β1 mAb (the text calls it Co-IP); only the target purified.

Amino acid sequences for entries named in this document (tags omitted).
UniProt Q14974: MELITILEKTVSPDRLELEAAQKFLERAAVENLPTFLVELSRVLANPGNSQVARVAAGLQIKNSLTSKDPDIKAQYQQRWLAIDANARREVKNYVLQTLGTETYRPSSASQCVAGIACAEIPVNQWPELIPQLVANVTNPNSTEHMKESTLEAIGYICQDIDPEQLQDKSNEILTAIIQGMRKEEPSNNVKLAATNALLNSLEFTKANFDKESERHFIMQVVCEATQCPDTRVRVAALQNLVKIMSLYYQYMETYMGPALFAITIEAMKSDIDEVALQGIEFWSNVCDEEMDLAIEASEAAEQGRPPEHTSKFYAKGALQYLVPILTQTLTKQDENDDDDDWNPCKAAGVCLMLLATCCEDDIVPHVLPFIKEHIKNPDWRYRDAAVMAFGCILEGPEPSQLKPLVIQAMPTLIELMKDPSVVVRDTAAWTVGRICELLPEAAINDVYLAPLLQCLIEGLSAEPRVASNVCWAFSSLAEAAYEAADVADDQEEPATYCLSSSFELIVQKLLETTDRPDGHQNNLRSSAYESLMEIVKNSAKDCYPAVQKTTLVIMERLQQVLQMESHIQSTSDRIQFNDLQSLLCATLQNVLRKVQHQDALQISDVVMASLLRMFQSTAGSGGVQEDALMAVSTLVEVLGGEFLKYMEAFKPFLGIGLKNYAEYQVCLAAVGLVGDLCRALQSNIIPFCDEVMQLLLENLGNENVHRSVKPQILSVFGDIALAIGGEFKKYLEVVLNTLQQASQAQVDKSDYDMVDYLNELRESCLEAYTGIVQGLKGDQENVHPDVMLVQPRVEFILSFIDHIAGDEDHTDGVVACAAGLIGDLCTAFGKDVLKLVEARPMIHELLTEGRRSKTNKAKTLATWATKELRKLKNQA

Assay [2] concerns the target T2, Signal-induced proliferation-associated 1 (SIPA1) (human (endogenous in BT549)) (UniProt Q96FS4).
T2 sequence: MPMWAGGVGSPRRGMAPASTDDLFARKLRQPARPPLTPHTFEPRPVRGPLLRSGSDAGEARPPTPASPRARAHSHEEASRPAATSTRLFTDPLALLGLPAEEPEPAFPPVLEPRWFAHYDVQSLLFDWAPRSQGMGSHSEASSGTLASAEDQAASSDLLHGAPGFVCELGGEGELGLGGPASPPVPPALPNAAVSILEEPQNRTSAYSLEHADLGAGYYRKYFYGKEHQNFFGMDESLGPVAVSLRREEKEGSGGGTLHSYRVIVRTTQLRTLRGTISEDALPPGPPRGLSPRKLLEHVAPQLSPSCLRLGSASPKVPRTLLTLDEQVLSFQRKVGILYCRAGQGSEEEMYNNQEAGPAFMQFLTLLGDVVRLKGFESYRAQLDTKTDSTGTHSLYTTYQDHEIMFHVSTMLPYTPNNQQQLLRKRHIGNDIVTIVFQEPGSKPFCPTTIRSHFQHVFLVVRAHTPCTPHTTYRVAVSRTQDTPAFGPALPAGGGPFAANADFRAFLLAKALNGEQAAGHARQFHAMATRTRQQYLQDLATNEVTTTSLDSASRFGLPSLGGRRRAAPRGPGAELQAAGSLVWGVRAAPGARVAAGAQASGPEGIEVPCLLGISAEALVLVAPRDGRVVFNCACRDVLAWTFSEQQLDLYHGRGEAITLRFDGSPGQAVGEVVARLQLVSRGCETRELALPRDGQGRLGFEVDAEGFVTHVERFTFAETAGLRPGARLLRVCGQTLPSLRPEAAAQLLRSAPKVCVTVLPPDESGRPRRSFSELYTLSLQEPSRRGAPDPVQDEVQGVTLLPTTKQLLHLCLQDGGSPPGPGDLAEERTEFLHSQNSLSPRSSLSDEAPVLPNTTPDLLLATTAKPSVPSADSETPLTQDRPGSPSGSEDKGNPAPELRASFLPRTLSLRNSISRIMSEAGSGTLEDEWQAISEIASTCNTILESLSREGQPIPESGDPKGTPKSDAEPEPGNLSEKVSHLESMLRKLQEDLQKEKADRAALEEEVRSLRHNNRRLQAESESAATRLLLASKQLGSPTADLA
The experiment in a line: co-IP; BT549 cells cultured with fibronectin for 24 h; whole-cell lysates in TNE lysis buffer; IP with anti-SIPA1 or anti-importin β1 antibody and protein G beads; Western blot. On the technique in general: A western blot detects proteins with antibodies after separation by electrophoresis.

Assay [3] addresses importin β1 (human (endogenous in BT549)) (UniProt Q14974). Described as above.

These are yes or no findings as the source states them, for the method shown. Binding seen in cells or lysates may run through a third protein. Some results given as binding are weak or reduced against the parent protein; the word gives no strength. For part of these data: Sequences can lack the tags named with a protein.

Results on two molecules are retold here after PMC10457189.

On to importin β1 (from UniProt Q14974 1-876), for which the binding entry in assay [1] and in assay [2] was “binds” throughout.

B1: Signal-induced proliferation-associated 1 (SIPA1) (protein, UniProt Q96FS4 1-1042)
chain: MPMWAGGVGSPRRGMAPASTDDLFARKLRQPARPPLTPHTFEPRPVRGPLLRSGSDAGEARPPTPASPRARAHSHEEASRPAATSTRLFTDPLALLGLPAEEPEPAFPPVLEPRWFAHYDVQSLLFDWAPRSQGMGSHSEASSGTLASAEDQAASSDLLHGAPGFVCELGGEGELGLGGPASPPVPPALPNAAVSILEEPQNRTSAYSLEHADLGAGYYRKYFYGKEHQNFFGMDESLGPVAVSLRREEKEGSGGGTLHSYRVIVRTTQLRTLRGTISEDALPPGPPRGLSPRKLLEHVAPQLSPSCLRLGSASPKVPRTLLTLDEQVLSFQRKVGILYCRAGQGSEEEMYNNQEAGPAFMQFLTLLGDVVRLKGFESYRAQLDTKTDSTGTHSLYTTYQDHEIMFHVSTMLPYTPNNQQQLLRKRHIGNDIVTIVFQEPGSKPFCPTTIRSHFQHVFLVVRAHTPCTPHTTYRVAVSRTQDTPAFGPALPAGGGPFAANADFRAFLLAKALNGEQAAGHARQFHAMATRTRQQYLQDLATNEVTTTSLDSASRFGLPSLGGRRRAAPRGPGAELQAAGSLVWGVRAAPGARVAAGAQASGPEGIEVPCLLGISAEALVLVAPRDGRVVFNCACRDVLAWTFSEQQLDLYHGRGEAITLRFDGSPGQAVGEVVARLQLVSRGCETRELALPRDGQGRLGFEVDAEGFVTHVERFTFAETAGLRPGARLLRVCGQTLPSLRPEAAAQLLRSAPKVCVTVLPPDESGRPRRSFSELYTLSLQEPSRRGAPDPVQDEVQGVTLLPTTKQLLHLCLQDGGSPPGPGDLAEERTEFLHSQNSLSPRSSLSDEAPVLPNTTPDLLLATTAKPSVPSADSETPLTQDRPGSPSGSEDKGNPAPELRASFLPRTLSLRNSISRIMSEAGSGTLEDEWQAISEIASTCNTILESLSREGQPIPESGDPKGTPKSDAEPEPGNLSEKVSHLESMLRKLQEDLQKEKADRAALEEEVRSLRHNNRRLQAESESAATRLLLASKQLGSPTADLA
With B1, the binding entry in assay [3] was “binds”.
